This passage reports binding results from article PMC4891106.

Sequences of proteins named here, by UniProt entry; tags and fusion partners are left off. A change or cut given only in a name is not applied to a line headed by its entry. Residues count along the entry.
UniProt P04004, residues 20-478: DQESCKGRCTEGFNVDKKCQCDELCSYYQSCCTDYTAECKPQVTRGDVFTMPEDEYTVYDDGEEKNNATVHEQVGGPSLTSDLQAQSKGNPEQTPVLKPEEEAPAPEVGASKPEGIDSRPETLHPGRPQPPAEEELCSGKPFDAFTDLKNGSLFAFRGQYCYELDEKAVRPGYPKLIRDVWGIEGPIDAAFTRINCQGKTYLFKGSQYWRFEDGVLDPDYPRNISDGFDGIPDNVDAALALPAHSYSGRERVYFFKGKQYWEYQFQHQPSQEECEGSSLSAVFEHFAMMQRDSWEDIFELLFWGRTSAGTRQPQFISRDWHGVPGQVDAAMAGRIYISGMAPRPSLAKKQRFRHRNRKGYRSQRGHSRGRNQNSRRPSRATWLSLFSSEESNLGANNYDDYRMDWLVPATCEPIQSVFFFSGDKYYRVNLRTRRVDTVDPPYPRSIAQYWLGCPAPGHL
UniProt Q9NPY3: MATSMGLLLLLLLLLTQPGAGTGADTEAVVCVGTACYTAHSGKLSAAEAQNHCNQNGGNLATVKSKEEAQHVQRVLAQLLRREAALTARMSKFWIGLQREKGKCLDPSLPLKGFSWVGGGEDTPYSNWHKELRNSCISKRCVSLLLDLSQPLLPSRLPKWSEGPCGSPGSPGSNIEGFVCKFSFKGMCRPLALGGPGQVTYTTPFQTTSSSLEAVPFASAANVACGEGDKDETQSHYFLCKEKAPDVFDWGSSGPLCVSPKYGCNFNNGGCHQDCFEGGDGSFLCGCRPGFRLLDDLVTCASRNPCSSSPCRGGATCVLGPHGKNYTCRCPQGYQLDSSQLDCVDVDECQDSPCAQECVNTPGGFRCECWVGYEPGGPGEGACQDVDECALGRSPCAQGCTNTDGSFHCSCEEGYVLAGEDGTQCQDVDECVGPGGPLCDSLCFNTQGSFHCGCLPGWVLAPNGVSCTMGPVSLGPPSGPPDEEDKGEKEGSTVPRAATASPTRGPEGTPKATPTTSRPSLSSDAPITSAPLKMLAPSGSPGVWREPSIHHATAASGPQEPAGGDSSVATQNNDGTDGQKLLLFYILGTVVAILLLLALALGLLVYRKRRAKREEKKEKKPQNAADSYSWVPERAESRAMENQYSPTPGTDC

These are yes or no findings as the source states them, for the method shown. For some assays here: Binding seen in cells or lysates may run through a third protein. Some entries that bind do so weakly or less than the wild type.

Assay [1] has as its target T1, β-dystroglycan (human (endogenous in HUVEC)) (UniProt Q14118).
T1 sequence: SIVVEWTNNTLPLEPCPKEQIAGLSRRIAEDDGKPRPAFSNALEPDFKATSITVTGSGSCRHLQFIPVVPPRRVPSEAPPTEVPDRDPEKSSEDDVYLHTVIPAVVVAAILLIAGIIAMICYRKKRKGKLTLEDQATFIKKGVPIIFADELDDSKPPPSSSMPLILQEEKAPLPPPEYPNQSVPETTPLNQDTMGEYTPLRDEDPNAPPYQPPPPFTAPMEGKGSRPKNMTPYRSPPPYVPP
Nature of the assay: proximity ligation; Duolink II on fixed, exponentially growing HUVEC on laminin-coated surfaces; mouse anti-CD93 and rabbit anti-β-DG; background by leaving out one primary antibody.

In assay [2] the target is vitronectin (UniProt P04004). In words: ELISA; soluble CD93 extracellular domain recombinant proteins applied to plates coated with purified ECM proteins. (In general: An ELISA detects its analyte on a solid surface through an enzyme-linked reagent.)

Turning to “CD93 (from UniProt Q9NPY3 22-652) (receptor)”, the binding entry in assay [1] was “binds”.

For “soluble CD93 extracellular domain recombinant proteins (from UniProt Q9NPY3 24-580) (domain or fragment)”, the binding result in assay [2] is “no binding”.
